Measurements reported in PubChem BioAssay AID1259285 (Sanger Institute, 2017).

Screen: 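Kinases needed for HCC56 growth and kinases whose loss boosts drug effects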 (primary screen)
Cell system: human HCC56 colorectal cancer cells
Reagents: siRNA pool against human genes
Conditions: DMSO vehicle, or anchor drug BYL719 at 1 µM, cetuximab at 5 µg/ml, or trametinib at 10 nM
Measured: 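Viability as a ratio to non-targeting pool wells, averaged over replicates and turned into a robust z-score; synergy scores with BYL719, cetuximab or trametinib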
Direction: viability robust z-score, no drug: higher = more viable cells, weaker knock-down effect
Rule for the call: 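a knock-down counts as essential if its viability z-score without drug is under -3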
Meaning of the calls: active = essential without drug; inactive = no change without drug
Here is a random part of 794 deposited reagents. Of all reagents, 20 (2.5%) got an active call. 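Calls rest on the drug-free arm alone and ignore synergy scores; viability ratios seem to be capped at 1.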 Entries without a mark were called inactive. Not all columns of the deposit are shown. Not given: the amount of reagent, the time to read-out.

| Gene | viability robust z-score, no drug |
| --- | --- |
| PNKP (polynucleotide kinase 3'-phosphatase) | -0.509 |
| MAP2K7 (mitogen-activated protein kinase kinase 7) | -1.14 |
| EPHA10 (EPH receptor A10) | 0.458 |
| STK33 (serine/threonine kinase 33) | 0.458 |
| LCK (LCK proto-oncogene, Src family tyrosine kinase) | -1.33 |
| TAOK2 (TAO kinase 2) | 0.458 |
| IRAK2 (interleukin 1 receptor associated kinase 2) | 0.458 |
| TLK2 (tousled like kinase 2) | 0.458 |
| PRKAG2 (protein kinase AMP-activated non-catalytic subunit gamma 2) | 0.458 |
| RYK (receptor like tyrosine kinase) | 0.458 |
| TJP2 (tight junction protein 2) | 0.458 |
| CDK8 (cyclin dependent kinase 8) | 0.458 |
| LATS2 (large tumor suppressor kinase 2) | 0.458 |
| RIPK2 (receptor interacting serine/threonine kinase 2) | 0.458 |
| TNK1 (tyrosine kinase non receptor 1) | 0.458 |
| FGFR1 (fibroblast growth factor receptor 1) | 0.458 |
| TAOK3 (TAO kinase 3) | 0.458 |
| PIK3CA | 0.458 |
| MINK1 (misshapen like kinase 1) | -0.192 |
| NME2 (NME/NM23 nucleoside diphosphate kinase 2) | 0.458 |
| PKMYT1 (protein kinase, membrane associated tyrosine/threonine 1) | 0.458 |
| LIMK2 (LIM domain kinase 2) | 0.458 |
| CHUK | 0.458 |
| DGKG (diacylglycerol kinase gamma) | 0.458 |
| PDIK1L (PDLIM1 interacting kinase 1 like) | 0.458 |
| ADK (adenosine kinase) | 0.458 |
| ACVR2A (activin A receptor type 2A) | 0.458 |
| MARK3 (microtubule affinity regulating kinase 3) | 0.458 |
| BRD3 (bromodomain containing 3) | 0.458 |
| PIP5K1A (phosphatidylinositol-4-phosphate 5-kinase type 1 alpha) | -0.455 |
| PIK3C2A | -2.53 |
| CDKN2D (cyclin dependent kinase inhibitor 2D) | -2.47 |
| PRKD3 (protein kinase D3) | 0.458 |
| JAK1 (Janus kinase 1) | 0.458 |
| NME3 (NME/NM23 nucleoside diphosphate kinase 3) | 0.458 |

Records above whose target name begins with L or l (3):
| Gene | viability robust z-score, no drug |
| --- | --- |
| LCK (LCK proto-oncogene, Src family tyrosine kinase) | -1.33 |
| LATS2 (large tumor suppressor kinase 2) | 0.458 |
| LIMK2 (LIM domain kinase 2) | 0.458 |

The list goes on.
| Gene | viability robust z-score, no drug |
| --- | --- |
| PASK (PAS domain containing serine/threonine kinase) | 0.458 |
| GTF2H1 (general transcription factor IIH subunit 1) | -3.07 (active) |
| MAP3K11 (mitogen-activated protein kinase kinase kinase 11) | 0.458 |
| GRK1 (G protein-coupled receptor kinase 1) | -0.38 |
| TNNI3K (TNNI3 interacting kinase) | 0.458 |
| ITSN1 (intersectin 1) | -2.09 |
| STK40 (serine/threonine kinase 40) | -0.594 |
| PRKAR1B (protein kinase cAMP-dependent type I regulatory subunit beta) | -0.965 |
| PAPSS2 (3'-phosphoadenosine 5'-phosphosulfate synthase 2) | 0.458 |
| PFKFB4 (6-phosphofructo-2-kinase/fructose-2,6-biphosphatase 4) | 0.458 |
| GUCY2D (guanylate cyclase 2D, retinal) | -3.46 (active) |
| PFKFB3 (6-phosphofructo-2-kinase/fructose-2,6-biphosphatase 3) | -0.0941 |
| PIP4K2C (phosphatidylinositol-5-phosphate 4-kinase type 2 gamma) | 0.458 |
| PGK2 (phosphoglycerate kinase 2) | 0.458 |
| PTGS1 (prostaglandin-endoperoxide synthase 1) | 0.211 |
| ACSL6 (acyl-CoA synthetase long chain family member 6) | 0.458 |
| AK5 (adenylate kinase 5) | 0.458 |
| DUSP21 (dual specificity phosphatase 21) | 0.458 |
| CSF1R (colony stimulating factor 1 receptor) | -3.34 (active) |
| MYLK4 (myosin light chain kinase family member 4) | 0.211 |
| PRKAG3 (protein kinase AMP-activated non-catalytic subunit gamma 3) | -1.61 |
| FOXP1 (forkhead box P1) | 0.458 |
| ATP23 | 0.458 |
| PANK4 (pantothenate kinase 4 (inactive)) | -2.4 |
| CSNK1G2 (casein kinase 1 gamma 2) | 0.458 |
| SMAD4 (SMAD family member 4) | 0.458 |
| FGFRL1 (fibroblast growth factor receptor like 1) | 0.458 |
| CDK16 (cyclin dependent kinase 16) | 0.458 |
